Measurements reported in the supplement of paper PMC12578635.
Some of the results follow. Rule as the data show it: active = 150% or more and inactive = the rest. Repeats are few or missing, and single values can be far off.

These compounds were tested on Staphylococcus aureus JE2-lux inside RAW 264.7 macrophages (assay: intracellular bacterial bioluminescence relative to DMSO vehicle; higher = higher intracellular bacterial metabolic activity). Conditions: 10 µM; treatment time 4 h; gentamicin 50 µg/ml.

Intracellular bacterial bioluminescence, inactive:
NS(=O)(=O)c1ccc(NC2=NC(=O)C(CC(=O)O)S2)cc1 (stereo not given) 115%
C#CCOc1cccc(C2CC(=O)Nc3c2cnn3-c2nc3ccccc3s2)c1 (stereo not given) 101%
O=C(CSc1ncnc2c1sc1nc3ccccc3cc12)Nc1ccc2c(c1)OCO2 43.6%
O=C1C2ON(c3ccc(Cl)cc3)C(c3ccc(F)cc3)C2C(=O)N1c1ccc([N+](=O)[O-])cc1 (stereo not given) 129%
O=C(C1=C(O)C(=O)N(c2nncs2)C1c1ccc(F)cc1)c1cccs1 (stereo not given) 83.4%
Cc1nc(SCC(=O)Nc2cccc(F)c2)[nH]c(=O)c1C 101%
Cc1sc2nc(SCC(=O)Nc3ccc(S(N)(=O)=O)cc3)[nH]c(=O)c2c1C 78%
CC(=O)C1=C(C)NC(SCC(=O)Nc2nccs2)=C(C#N)C1c1ccc(Cl)cc1 (stereo not given) 100%
CCOc1ccc(-n2c(=O)[nH]c3c(C(N)=O)nc(-c4ccc(C)o4)nc32)cc1 108%
COc1ccc(OC)c2sc(NNC(=O)c3c(F)cccc3F)nc12 79.5%
COc1ccc(NC(=O)CC2NC(=O)NC2=O)cc1 (stereo not given) 91.1%
O=C(NC1CC(=O)N(c2ccc3c(c2)OCCO3)C1)N1CCN(c2ccccc2F)CC1 (stereo not given) 132%
CC(=O)Nc1nc(C(=O)Nc2ccc3nc(C)[nH]c3c2)cs1 101%
Fc1ccc2nc(Nc3nc(-c4cccs4)cs3)sc2c1 97.3%
Cc1sc2nc(C)n(C3CCN(C(=O)c4n[nH]c5c4CCC5)CC3)c(=O)c2c1C 96.1%
Cc1cccc(CSC2=NCCN2C(=O)c2cccs2)c1 50%
COc1ccc2oc(=O)c(/C(N)=N/NC(=O)c3ccncc3)cc2c1 96.3%
CCOc1ccc(NC(=O)c2nc3c(=O)n(Cc4ccccc4C)c4cc(C)ccc4n3n2)cc1 105%
COc1cc2nc(NC(=O)c3cc4cc([N+](=O)[O-])ccc4s3)sc2cc1OC 100%
O=c1nc(SCc2cccc3ccccc23)c2c(n1CCO)CCCC2 118%
COC(=O)c1ccc(NC(=O)CCN2C(=O)CSC2=O)cc1 78.3%
COc1ccc(CCNc2nccn(Cc3ccc(Cl)cc3)c2=O)cc1OC 6.08%
CC(C)C(C(=O)Nc1ccccc1)N1C(=O)c2ccccc2C1=O (stereo not given) 92.7%
Cc1ccc(C)c2[nH]c(=O)c(CCNC(=S)NCCn3ccc4ccccc43)cc12 82.4%
Cc1nc(Oc2cccc(Cl)c2)c2c3c(sc2n1)CCCC3 82.8%
Cc1nn2c(C)c(C(=O)Nc3ccc(C(C)C)cc3)cnc2c1-c1ccccc1 106%
N#CC1=C(S)N(c2ccccc2)C(c2ccc(-c3ccccc3[N+](=O)[O-])o2)NC1=O (stereo not given) 94%
CCc1c(C)nc(N2CCN(c3cccc(OC)c3)CC2)[nH]c1=O 96.4%
O=C(CN(Cc1ccco1)C(=O)C(=O)Nc1ccc2c(c1)OCCO2)NC1CCCC1 88.6%
O=C(CCSc1ccc(F)cc1)Nc1nc2c(s1)CCC2 109%
CC(=O)C(C)n1c(CN2CCN(C(=O)c3ccco3)CC2)nc2c1c(=O)n(C)c(=O)n2C (stereo not given) 91.4%
Cc1nc(-c2ccccc2)c(CC(=O)NC(c2cccs2)C(C)C)s1 (stereo not given) 98.3%
Cc1ccccc1/N=c1\oc2ccc([N+](=O)[O-])cc2cc1C(N)=O 110%
CCN(C(=O)Cc1ccccc1OC)c1nc2c(s1)CCc1occc1-2 71.5%
CC1CC(C)CN(c2cc(C(=O)O)c3cc(NC(=O)C4CCC4)ccc3n2)C1 (stereo not given) 111%
Cc1ccc2c(c1)c1c(n2CC(O)CN2C(=O)CNC2=O)C(=O)CCC1 (stereo not given) 119%
Cc1cc(C)n(-c2cc(N3CCN(c4ccccc4)CC3)ncn2)n1 51.1%
COC(=O)c1ccc(NC(=O)CSc2nc3sc4c(c3c(=O)[nH]2)CCCC4)cc1 79.2%
O=C(Nc1sc2c(c1C(=O)NCCc1ccccc1)CCC2)c1cc(-c2cccs2)on1 98.1%
COC(=O)c1ccccc1NC(=O)CSc1nc2ccccc2s1 48.7%
Oc1c2c(nc3nc(Cc4ccc(Cl)cc4)nn13)CCCC2 72.5%
NC(=O)c1ccc(NC(=O)Cn2cc(S(=O)(=O)Cc3ccccc3)c3ccccc32)cc1 98.6%
O=S(=O)(Oc1ccc2oc3ccccc3c2c1)c1cccs1 26.3%
Cc1ccccc1/N=c1\scc(-c2cccs2)n1CCO 78.7%
COc1ccc(-c2nc3sc(CCNC(=O)C(=O)N4CCN(C(C)=O)CC4)c(C)n3n2)cc1 117%
CCOc1ccc(NN=C2C(C)=NN=C2C)c([N+](=O)[O-])c1 114%
Cc1cccc(-c2nc3scc(CCNC(=O)C(=O)Nc4cccc([N+](=O)[O-])c4)n3n2)c1 111%
CCC1CCCCN1C(=O)CCc1c(C)[nH]c2nc(NCc3ccc(Cl)cc3)nn2c1=O (stereo not given) 113%
Cc1ccc2c(c1)NC(=O)c1cc(NS(=O)(=O)c3ccc4c(c3)OCCO4)ccc1O2 114%
CCOC(=O)c1cnn(-c2ccc(C(=O)Nc3ccccc3OCC)cn2)c1N 123%
CCc1ccc2c(c1)c1nnc(SCc3nnc(-c4ccccc4)o3)nc1n2C 93.1%
O=c1oc2cc(OCC(O)Cn3ccnc3)ccc2c2c1CCC2 (stereo not given) 71.4%
Cc1ccccc1N(CC(=O)NCc1ccc(F)cc1)C(=O)c1ccc(N2CCCC2)nc1 65.3%
CC(C)Oc1ccc(C(=O)C2=C(O)C(=O)N(Cc3cccnc3)C2c2cccc(O)c2)cc1 (stereo not given) 102%
Cc1ccc(NC(=O)CC2Nc3ccc(C(F)(F)F)cc3NC2=O)c(C)c1 (stereo not given) 130%
Cc1nc2c(ccc3nc(Nc4nc5ccc(F)cc5s4)sc32)s1 94%
CCn1cc(C(=O)N2CCCC2c2nc(-c3ccncc3)n[nH]2)c(C)n1 (stereo not given) 127%
COc1ccc(-n2ccnc2SCC(=O)NCc2ccc3c(c2)OCO3)cc1 82.7%
COc1cc2nc(NCCCN3CCCC3=O)n3nc(-c4cccnc4)nc3c2cc1OC 77%
CC(C)n1c(SCC(=O)Nc2cccc(F)c2)nc2c(-c3ccccc3)cn(C)c2c1=O 57.8%
Cc1ccc(-c2cc(C(F)(F)F)n3nc(C(=O)NCc4ccco4)nc3n2)cc1 101%
CCOc1ccc(-c2ccc(OCCNC(=O)c3sc(-c4ccccc4)nc3C)nn2)cc1 93%
CCOC(=O)c1c(SCC(=O)c2ccc(Cl)cc2)nc(=O)[nH]c1C 79.5%
COc1ccccc1CNC(=O)c1sc2nc(-c3ccc(F)cc3)cn2c1C 98.2%
Cc1cc(C)cc(Oc2ncnc3oc(C)c(C)c23)c1 96.9%
COc1ccc(CN(Cc2cc3cc(C)ccc3nc2Cl)C(=O)Nc2ccccc2)cc1 114%
CCOC(=O)C1CCN(c2cc3c(cc2NC(=O)c2cccc(C)c2)n(C)c(=O)n3C)CC1 127%
COC(=O)c1cc(OC)c(OC)cc1NC(=O)c1cc2ccccc2oc1=O 131%
CCOc1ccc(NC(=O)CSC2=C(C#N)C(c3cccs3)C3=C(CC(C)(C)CC3=O)N2)cc1 (stereo not given) 18.6%
COCCNC(=O)c1c(N)n(/N=C/c2ccncc2)c2nc3ccccc3nc12 81.1%
O=C1CC(Nc2ccc(N3CCOCC3)cc2)C(=O)N1 (stereo not given) 113%
O=C(CC1Sc2ccccc2NC1=O)Nc1ccccc1F (stereo not given) 104%
CCOC(=O)c1ccccc1NC(=O)CSc1nnc(C2CCCCC2)n1-n1cccc1 54.1%
CC(=O)C1=C(C)Nc2ncnn2C1c1ccc(C(C)C)cc1 (stereo not given) 99%
COc1ccc(Cn2c(C)nc3cc(Cl)c(NC(=O)c4ccncc4)cc3c2=O)cc1 110%
O=C(Nc1nc2ccc(F)cc2s1)c1ccc2c(c1)CCCC2 59.3%
CS(=O)(=O)Nc1cccc(C2=NN(C(=O)C3CCCCC3)C(c3cccc(F)c3)C2)c1 (stereo not given) 130%
O=C(NNc1nc2c(F)cc(F)cc2s1)c1coc2ccccc2c1=O 81.7%
CCN(Cc1ccccc1)C(=O)CCN1C(=O)/C(=C\c2ccco2)SC1=S 45.7%
O=S1(=O)N=C(SCc2cccc(F)c2)Nc2ccc(Cl)cc21 129%
CC(=O)N1CCc2cc(NC(=O)CSc3nnc4ccccn34)ccc21 77.9%
CC(C)c1cc(C(=O)Nc2cccc(-c3nc4ccccc4o3)c2)nn1C1CCS(=O)(=O)C1 (stereo not given) 57.8%
NC(=O)c1ccsc1NC(=O)c1sc2ccccc2c1Cl 105%
CCOC(=O)Cc1ccc(NC(=O)Nc2ccc(Sc3c(CC)c(C)nc4ncnn34)cc2)cc1 51.8%
COc1cc(C(=O)Nc2cccc(C(=O)N3CCCCC3)c2)c2ccccc2n1 94.3%
Cn1c(=O)c2c(nc(NCc3cccnc3)n2CC(=O)c2ccccc2)n(C)c1=O 117%
Cc1ccc(-c2nnn3c2nc(NCc2ccc4c(c2)OCO4)c2ccccc23)cc1 83.1%
N#Cc1c(NC(=O)c2ccc(-c3nc4ccccc4s3)s2)sc2c1CCC2 102%
CCOC(=O)c1c(NC(=S)NC(=O)c2ccc(C(=O)OC)cc2)sc(OC(=O)CC)c1C 106%
CCC(=O)Nc1cccnc1-c1ccc(C(=O)Nc2ccc(OC)cc2OC)cc1 98.7%

An excerpt from above in order of SMILES length, smallest number first.
Intracellular bacterial bioluminescence, inactive:
Cc1nc(-c2ccccc2)c(CC(=O)NC(c2cccs2)C(C)C)s1 (stereo not given) 98.3%
COc1ccccc1CNC(=O)c1sc2nc(-c3ccc(F)cc3)cn2c1C 98.2%
CCc1ccc2c(c1)c1nnc(SCc3nnc(-c4ccccc4)o3)nc1n2C 93.1%

Grouped by structure: those above containing a CF3 group
Intracellular bacterial bioluminescence, inactive:
Cc1ccc(NC(=O)CC2Nc3ccc(C(F)(F)F)cc3NC2=O)c(C)c1 (stereo not given) 130%
Cc1ccc(-c2cc(C(F)(F)F)n3nc(C(=O)NCc4ccco4)nc3n2)cc1 101%
